Laboratory results published in PubChem BioAssay AID504648 (National Center for Advancing Translational Sciences (NCATS), 2011).
The campaign covered roughly 390,000 compounds. About 610 (0.16%) were called active. The shares of active, inactive and inconclusive entries below differ from those in the screen. Calls follow the shape of the dose curve; as a rule, active = well fitted inhibition curve with a large enough effect; inconclusive = small, poorly fitted or top-dose-only effect, or effect the other way, or another doubt; inactive = no such curve, though single readings can be large or run the other way. Potencies of inconclusive entries are doubtful fits and often do not repeat.

Assay: Nrf2 qHTS screen for inhibitors: counterscreen for cytotoxicity
Settings: A549 ARE-Fluc cells, CellTiter-Fluor viability, 18-24 h; activity change, negative = cytotoxicity: at 46 µM (top of the series)
Procedure, shortened: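 A549 ARE_Fluc cells in 5% FBS OPTI-MEM were exposed to compounds in concentration-response for 18-24 h at 37 deg C. Viability was read by CellTiter-Fluor fluorescence (Ex 405/Em 525) after 30 min, before the luciferase read.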
% is scaled to controls: 0 for no effect and ±100 for the full control effect; potency is read from the fitted curve at half-maximal effect.

| SMILES | activity change, negative = cytotoxicity | Potency |
| --- | --- | --- |
| CCc1ccc(-n2nc(C)c3c(C)cc(=O)n(CC(=O)N4CCCc5ccccc54)c32)cc1 | inactive: -0.809% |  |
| CCCCCC(=O)NNC(=O)c1c(O)c2ccccc2n(CC)c1=O |  | inconclusive: 20.6 µM [falling, single point] |
| CCc1ccc(-n2nc3cc(C)c(NC(=O)c4cccc5ccccc45)cc3n2)cc1 | inactive: 1.05% |  |
| C=CCc1ccccc1OCC(=O)NNC(=S)NCc1ccccc1 | inactive: -0.245% |  |
| CCNc1nc2nc3ccc(C)cn3c(=O)c2cc1C(=O)NCC1CCCO1 (stereo not given) |  | inconclusive: 4.61 µM [activator, partial curve, poor fit] |
| CCOC(=O)c1cnc2ccc(OC)cc2c1NCCc1ccccc1 |  | inconclusive: 16.4 µM [falling, single point] |
| Cn1c(=O)c2c(nc(NCc3ccccc3)n2Cc2ccccc2)n(C)c1=O | inactive: -0.673% |  |
| CCOC(=O)c1cc([N+](=O)[O-])sc1NC(=O)CC | inactive: 3.17% |  |
| COCCCNC(=O)C[C@H]1C[C@H](C(=O)N2CCOCC2)[C@@]2(C)c3[nH]c4cc(CCC(=O)N(C)C)ccc4c3CCN2C1=O | inactive: -0.152% |  |
| Cc1cc2n(n1)C(c1cn(-c3ccccc3)nc1C)Nc1c(C)cccc1-2 (stereo not given) |  | inconclusive: 6.51 µM [falling, single point] |
| COc1ccnc(N=CNOCc2ccc(C)cc2)c1C#N |  | inconclusive: 25.9 µM [activator, partial curve, poor fit] |
| CCOc1ccc(-c2cccc(NS(=O)(=O)c3c(C)cc(C)cc3C)c2)nn1 | inactive: -1.55% |  |
| CC(=O)c1cccc(NC(=O)c2sc(-n3nc(C)c(Cc4ccc5c(c4)OCO5)c3C)nc2C)c1 |  | inconclusive: 23.1 µM [falling, partial curve, poor fit] |
| COc1ccc(C(=O)N/N=C/c2sc3ccccc3c2O)cc1 |  | inconclusive: 18.4 µM [falling, partial curve, poor fit] |
| COC(=O)c1ccccc1NC(=O)CSc1nc2ccsc2c(=O)n1CCC(C)C | inactive: 0.259% |  |
| S=C(N/N=C/c1ccc(Cl)c(Cl)c1)Nc1ccccc1Cl |  | inconclusive: 25.9 µM [falling, single point] |
| NC(=O)CC(NC(=O)Cc1cccc2ccccc12)c1ccc(NC2CCN(Cc3ccccc3)CC2)c([N+](=O)[O-])c1 (stereo not given) |  | inconclusive: 20.6 µM [falling, single point] |
| COc1ccc(NS(=O)(=O)c2ccc(OC)c(N(C)S(=O)(=O)c3ccc(Cl)cc3)c2)cc1 |  | inconclusive: 20.6 µM [falling, single point] |
| Cc1cccc(/C=C(\c2nc3ccccc3[nH]2)S(=O)(=O)c2ccccc2)c1 |  | inconclusive: 29.1 µM [falling, single point] |
| CC(C)CCN(C(=O)CNC(=O)c1cccs1)C(C(=O)NC1CCCC1)c1ccncc1 (stereo not given) |  | inconclusive: 32.6 µM [activator, partial curve, poor fit] |

Filtered by structure, the entries above with a thiophene ring, fused or not (4)

| SMILES | activity change, negative = cytotoxicity | Potency |
| --- | --- | --- |
| CCOC(=O)c1cc([N+](=O)[O-])sc1NC(=O)CC | inactive: 3.17% |  |
| COc1ccc(C(=O)N/N=C/c2sc3ccccc3c2O)cc1 |  | inconclusive: 18.4 µM [falling, partial curve, poor fit] |
| COC(=O)c1ccccc1NC(=O)CSc1nc2ccsc2c(=O)n1CCC(C)C | inactive: 0.259% |  |
| CC(C)CCN(C(=O)CNC(=O)c1cccs1)C(C(=O)NC1CCCC1)c1ccncc1 (stereo not given) |  | inconclusive: 32.6 µM [activator, partial curve, poor fit] |

Going on with the list:

| SMILES | activity change, negative = cytotoxicity | Potency |
| --- | --- | --- |
| FC(F)(F)c1cccc(NC(=S)NCc2ccc(Cl)cc2)c1 | inactive: -11.9% |  |
| O=C1N[C@H](Cc2ccccc2)COC(=O)[C@@H](Cc2ccc(F)cc2)CC/C=C/C[C@H]1CC(=O)N(CCO)Cc1ccccc1 |  | inconclusive: 32.6 µM [falling, partial curve, poor fit] |
| CCCc1[nH]n(-c2ccc([N+](=O)[O-])cc2)c(=O)c1C=NCCc1c[nH]c2ccccc12 |  | inconclusive: 29.1 µM [falling, partial curve, poor fit] |
| COc1ccccc1/C=C1\CCCC2=C1Nc1nnnn1C2c1ccccc1OC (stereo not given) | inactive: -6.49% |  |
| C/C(=N\N=C(N)N)c1cc(Cl)ccc1Cl |  | inconclusive: 29.1 µM [falling, partial curve, poor fit] |
| Cc1c(-c2cccc(Cl)c2)nc2ccccc2c1C(=O)OCC(=O)Nc1ccc2c(c1)OCO2 |  | inconclusive: 18.4 µM [falling, single point] |
| COc1ccc(F)cc1S(=O)(=O)NCCc1csc2nc(-c3cccc(C)c3)nn12 |  | inconclusive: 0.231 µM [falling, partial curve, poor fit] |
| COc1ccc(-c2nc(N/N=C(\C)c3ccc(O)cc3)c3ccccc3n2)cc1 |  | inconclusive: 23.1 µM [falling, single point] |
| O=C1OCC2=C1C(c1ccc(F)cc1)c1cc3c(cc1N2)OCO3 (stereo not given) |  | inconclusive: 0.058 µM [falling, full curve] |
| COc1ccccc1N1CCN(C2=Nc3cccc4cccc2c34)CC1 |  | inconclusive: 29.1 µM [falling, single point] |
| Cc1cccc(-n2c(O)c(C=Nc3ccccc3-c3n[nH]c(=S)[nH]c3=O)c3ccccc3c2=O)n1 |  | inconclusive: 23.1 µM [falling, single point] |
| Cc1ccc(OC/C(O)=C(\C#N)c2nc3ccccc3s2)cc1 |  | inconclusive: 32.6 µM [falling, partial curve, poor fit] |
| O=c1oc2c(F)cc(F)cc2cc1S(=O)(=O)c1ccc(F)cc1 |  | inconclusive: 6.51 µM [activator, full curve] |
| CN1CCN(CC/C=C2/c3ccccc3Sc3ccc(S(=O)(=O)N(C)C)cc32)CC1 |  | inconclusive: 29.1 µM [falling, single point] |
| CCC(=O)c1cc2c(cc1NC(=O)c1ccccc1)OCCO2 |  | inconclusive: 29.1 µM [activator, partial curve, poor fit] |
| O=C(COC(=O)c1cn(-c2ccccc2)nc1-c1ccccc1)c1cccc([N+](=O)[O-])c1 |  | inconclusive: 29.1 µM [falling, single point] |
| Oc1ccccc1/C=N/Nc1ccccc1 | inactive: 8.76% |  |
| C=C(C)COc1ccc(-c2ncncc2-c2ccc(Br)cc2)c(O)c1 |  | inconclusive: 20.6 µM [falling, partial curve, poor fit] |
| CC(C)CNC(=S)NNC(=O)c1csc2c1CCCC2 |  | inconclusive: 18.4 µM [activator, partial curve, poor fit] |
| CCOC(=O)c1cc2c(=O)n3ccccc3nc2n(CCOC)c1=NC(=O)C(C)(C)C |  | inconclusive: 18.4 µM [activator, partial curve, poor fit] |
